Source: paper PMC12703428 (Chembiochem, 2025)
HELM strings list residues between dots; [ac] is acetyl, [am] amide, other brackets name non-standard units.

Test: general procedure: peptide synthesis; 2-chlorotrityl resin; HCTU / 2,4,6-collidine (SPPS); HATU / 2,4,6-trimethylpyridine (solution coupling)

Substance	step yield
PEPTIDE1{[ac].I.G.N.[ArgP(OPh)2]}$$$$V2.0	9%
PEPTIDE1{[ac].I.G.N.[ArgP(OPh)Ph]}$$$$V2.0	13%
